Values from PubChem BioAssay AID1259254 (NCATS, 2017).
Aim: 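Genome-wide screen for genes that prevent DNA re-replication in cancer cells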 (primary screen). Cell system: human HCT116 colorectal cancer cells. Reagents: single siRNA against human genes. Timing: 3 days. Measurement: 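Nuclei stained with Hoechst and imaged; cell-cycle phase assigned by DNA content; G2 share scaled per plate, non-targeting siRNA 0%, GMNN siRNA 100%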. Reading the numbers: G2 robust z-score and G2 cells, % of GMNN control: higher = more G2 cells, more excess DNA replication; raw share of cells in G2: higher = larger share of cells with G2 DNA content. Rule for the call: 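An siRNA counts as active if its G2 robust z-score lies at least 5 MADs above the screen median; here such calls match roughly 38% of GMNN control or more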.
The whole screen tested about 59,000 reagents; this is a part drawn at random. Of all reagents, about 1,550 (2.6%) were called active. 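G2 share is only a proxy for re-replication; each gene was hit by three separate siRNAs, and active genes were retested.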 Raw values are not corrected between plates. Unmarked entries are inactive. Reagents against one gene are numbered here. Not stated in the record: the amount of reagent.

no.	target	siRNA no.	G2 robust z-score	G2 cells, % of GMNN control	raw share of cells in G2 (%)
1	UBE2N	1	3.28	26.1	16.6
2	UBE2N	2	0.712	7.98	7.1
3	UBE2N	3	-0.469	-0.331	4.14
4	CHST4	1	0.382	5.66	5.67
5	CHST4	2	1.91	16.4	12.8
6	CHST4	3	0.1	3.67	7.93
7	RPS16P5	1	0.28	4.93	5.64
8	RPS16P5	2	0.648	7.53	6.02
9	RPS16P5	3	-0.439	-0.122	3
10	CLINT1	1	-0.741	-2.24	2.78
11	CLINT1	2	-1.09	-4.73	3.88
12	CLINT1	3	-0.479	-0.4	3.17
13	MED25	1	3.2	25.5	17.4
14	MED25	2	-0.357	0.456	2.95
15	MED25	3	0.365	5.54	5.37
16	ITGA4	1	-1.36	-6.59	2.65
17	ITGA4	2	2.84	23	12.6
18	ITGA4	3	-1.01	-4.11	4.12
19	PPRC1	1	0.554	6.86	5.81
20	PPRC1	2	0.145	3.99	7.76
21	PPRC1	3	-0.25	1.21	3.85
22	RAB6A	1	-1.02	-4.21	3.53
23	RAB6A	2	-0.771	-2.46	3.74
24	RAB6A	3	-0.434	-0.084	4.12
25	FUT9	1	-0.704	-1.98	3.2
26	FUT9	2	-0.294	0.902	6.09
27	FUT9	3	-0.646	-1.58	5.86
28	TOMM22P3	1	3.22	25.7	11
29	TOMM22P3	2	0.856	8.99	4.45
30	TOMM22P3	3	-1.18	-5.32	1.96
31	LINGO1	1	0.0835	3.55	5.82
32	LINGO1	2	-1.07	-4.54	3.56
33	LINGO1	3	-0.736	-2.21	4.02
34	LILRB5	1	-0.806	-2.7	2.97
35	LILRB5	2	-0.912	-3.45	4.2
36	LILRB5	3	-0.857	-3.06	5.27
37	ROMO1	1	2.82	22.8	11
38	ROMO1	2	-0.9	-3.37	2.7
39	ROMO1	3	0.505	6.52	4.93
40	HNRNPM	1	-0.755	-2.34	2.42
41	HNRNPM	2	0.569	6.97	8.06
42	HNRNPM	3	2.15	18.1	12.6
43	PHACTR4	1	-0.369	0.375	4.74
44	PHACTR4	2	1.85	16	11.8
45	PHACTR4	3	5.66 (active)	42.8	14
46	MCM3	1	-0.674	-1.78	2.61
47	MCM3	2	-1.16	-5.2	3.41
48	MCM3	3	2.42	20	13.1
49	POLR2I	1	2.55	20.9	12.2
50	POLR2I	2	3.24	25.8	14.5
51	POLR2I	3	1	10	7.47
52	SASH1	1	-0.15	1.91	5.13
53	SASH1	2	0.534	6.72	6.85
54	SASH1	3	1.39	12.8	7.76
55	INVS	1	0.502	6.5	6.34
56	INVS	2	-0.296	0.883	4.88
57	INVS	3	-1.01	-4.12	1.95
58	CBX3	1	0.926	9.48	10.2
59	CBX3	2	-0.689	-1.88	3.22
60	CBX3	3	0.378	5.63	6.04
61	CSAG1	1	-0.319	0.726	2.99
62	CSAG1	2	-0.178	1.72	4.22
63	CSAG1	3	-0.557	-0.951	2.64
64	SLC35E2B	1	0.754	8.27	7.1
65	SLC35E2B	2	-0.379	0.301	3.41
66	SLC35E2B	3	-0.547	-0.881	2.76
67	STX1A	1	0.899	9.3	7.15
68	STX1A	2	-0.759	-2.38	3.73
69	STX1A	3	4.03	31.3	14.5
70	KIAA0753	1	-0.572	-1.06	4.85
71	KIAA0753	2	-0.988	-3.98	2.28
72	KIAA0753	3	-0.76	-2.38	2.54
73	PHKB	1	1.06	10.4	8.18
74	PHKB	2	0.508	6.54	5.47
75	PHKB	3	1.49	13.4	8.35
76	NIPSNAP1	1	0.597	7.17	8.31
77	NIPSNAP1	2	0.00392	3	5.08
78	NIPSNAP1	3	0.384	5.67	5.35
79	INPP5F	1	-1.18	-5.31	3.07
80	INPP5F	2	-0.751	-2.32	3.61
81	INPP5F	3	-0.521	-0.697	3.29
82	COMMD4P1	1	-0.495	-0.516	2.94
83	COMMD4P1	2	0.858	9.01	7.1
84	COMMD4P1	3	2.26	18.9	10.6
85	MSS51	1	-0.59	-1.18	2.76
86	MSS51	2	1.26	11.8	7.16
87	MSS51	3	-0.345	0.542	3.72

Laid out differently: entries from further up
target | siRNA no. | G2 robust z-score | G2 cells, % of GMNN control | raw share of cells in G2 (%)
SLC35E2B | 2 | -0.379 | 0.301 | 3.41
SLC35E2B | 3 | -0.547 | -0.881 | 2.76
STX1A | 1 | 0.899 | 9.3 | 7.15
STX1A | 2 | -0.759 | -2.38 | 3.73
STX1A | 3 | 4.03 | 31.3 | 14.5
KIAA0753 | 1 | -0.572 | -1.06 | 4.85
KIAA0753 | 2 | -0.988 | -3.98 | 2.28
KIAA0753 | 3 | -0.76 | -2.38 | 2.54
PHKB | 1 | 1.06 | 10.4 | 8.18
PHKB | 2 | 0.508 | 6.54 | 5.47
PHKB | 3 | 1.49 | 13.4 | 8.35
NIPSNAP1 | 1 | 0.597 | 7.17 | 8.31
NIPSNAP1 | 2 | 0.00392 | 3 | 5.08
NIPSNAP1 | 3 | 0.384 | 5.67 | 5.35
INPP5F | 1 | -1.18 | -5.31 | 3.07
